According to article PMC8529501 (iScience, 2021):
No constants are given. Whether binding was seen depends on the method and setting. Binding seen in cells or lysates may run through a third protein. Binding can be weak; no strength is given.

How the values were obtained:
[1] = target: FKBP12-C-Luc-K45R (UniProt P62942); assay: split reporter; split luciferase: FKBP12 fused to C-Luc, FRB or Rheb fused to N-Luc, cotransfected in HEK293T; rapamycin treatment for 6 h; with or without TSA or NAM pretreatment for 2 h; luciferase activity
[2] = target: FKBP12-C-Luc-K45Q (UniProt P62942); assay: as above

binding [1]: binds
binding [2]: binds
Substance: Rheb-N-Luc (from UniProt Q15382 1-184)
